Reference: the supplement of paper PMC10849652
The list shows a part of the results.

The chains behind the UniProt entries cited, without tags or fusion partners. Where a name states a change or a piece, a line headed by the entry shows the natural chain unless it says otherwise.
UniProt Q13724: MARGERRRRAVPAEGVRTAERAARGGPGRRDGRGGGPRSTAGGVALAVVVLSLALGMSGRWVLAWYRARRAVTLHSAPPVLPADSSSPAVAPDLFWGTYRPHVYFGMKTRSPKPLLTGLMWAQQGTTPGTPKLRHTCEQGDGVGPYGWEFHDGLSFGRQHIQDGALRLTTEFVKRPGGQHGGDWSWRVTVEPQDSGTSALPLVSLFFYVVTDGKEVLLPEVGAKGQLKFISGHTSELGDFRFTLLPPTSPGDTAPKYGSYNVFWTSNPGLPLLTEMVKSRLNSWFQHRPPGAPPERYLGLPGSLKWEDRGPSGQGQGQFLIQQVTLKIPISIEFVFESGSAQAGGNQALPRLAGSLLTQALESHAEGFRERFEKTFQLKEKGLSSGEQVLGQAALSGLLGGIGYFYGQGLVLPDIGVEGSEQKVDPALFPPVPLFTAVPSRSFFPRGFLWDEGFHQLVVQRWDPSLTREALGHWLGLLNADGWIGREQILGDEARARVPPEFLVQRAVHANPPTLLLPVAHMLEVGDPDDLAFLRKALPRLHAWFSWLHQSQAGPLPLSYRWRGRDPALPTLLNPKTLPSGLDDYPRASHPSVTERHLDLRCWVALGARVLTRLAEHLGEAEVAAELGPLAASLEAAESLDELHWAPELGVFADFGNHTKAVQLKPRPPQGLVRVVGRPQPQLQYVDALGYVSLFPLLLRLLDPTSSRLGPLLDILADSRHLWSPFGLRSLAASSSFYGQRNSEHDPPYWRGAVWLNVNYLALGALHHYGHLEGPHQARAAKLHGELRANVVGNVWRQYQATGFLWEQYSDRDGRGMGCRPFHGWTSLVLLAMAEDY
UniProt Q8N3F8: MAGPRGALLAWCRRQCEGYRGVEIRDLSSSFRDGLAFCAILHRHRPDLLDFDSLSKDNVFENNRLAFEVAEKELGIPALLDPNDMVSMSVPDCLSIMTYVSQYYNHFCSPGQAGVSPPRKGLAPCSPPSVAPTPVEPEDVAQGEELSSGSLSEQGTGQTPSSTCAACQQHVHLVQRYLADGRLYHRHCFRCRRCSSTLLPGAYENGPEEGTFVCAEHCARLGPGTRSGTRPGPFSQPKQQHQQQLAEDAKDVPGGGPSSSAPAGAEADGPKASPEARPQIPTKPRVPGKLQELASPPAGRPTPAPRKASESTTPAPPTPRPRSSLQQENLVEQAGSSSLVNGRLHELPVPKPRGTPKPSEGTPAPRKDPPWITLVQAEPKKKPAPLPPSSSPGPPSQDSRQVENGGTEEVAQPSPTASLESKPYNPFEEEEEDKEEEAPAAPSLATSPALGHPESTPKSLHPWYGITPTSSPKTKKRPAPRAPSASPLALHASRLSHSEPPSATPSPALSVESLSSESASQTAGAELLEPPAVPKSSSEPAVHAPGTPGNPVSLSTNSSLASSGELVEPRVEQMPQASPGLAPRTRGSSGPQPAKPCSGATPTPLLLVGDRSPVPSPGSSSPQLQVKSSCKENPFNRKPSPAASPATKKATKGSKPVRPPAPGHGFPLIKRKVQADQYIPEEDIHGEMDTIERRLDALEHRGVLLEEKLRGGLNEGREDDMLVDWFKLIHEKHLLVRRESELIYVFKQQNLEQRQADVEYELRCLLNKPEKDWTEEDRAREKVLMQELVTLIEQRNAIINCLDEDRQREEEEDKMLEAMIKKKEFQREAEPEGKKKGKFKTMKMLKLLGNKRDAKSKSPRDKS
UniProt Q8N4V1: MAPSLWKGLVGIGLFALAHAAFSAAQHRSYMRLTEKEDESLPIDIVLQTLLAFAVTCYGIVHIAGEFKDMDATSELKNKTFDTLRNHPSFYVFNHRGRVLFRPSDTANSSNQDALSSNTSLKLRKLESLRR
UniProt Q9UH92: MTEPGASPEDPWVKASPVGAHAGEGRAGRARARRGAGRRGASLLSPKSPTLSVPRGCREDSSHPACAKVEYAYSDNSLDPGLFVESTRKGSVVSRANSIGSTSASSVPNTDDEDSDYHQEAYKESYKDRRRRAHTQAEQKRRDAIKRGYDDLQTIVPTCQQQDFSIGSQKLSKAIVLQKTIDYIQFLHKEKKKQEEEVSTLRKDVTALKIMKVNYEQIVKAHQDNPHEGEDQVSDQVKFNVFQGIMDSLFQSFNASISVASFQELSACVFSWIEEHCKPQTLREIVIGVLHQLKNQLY
UniProt Q8TDZ2: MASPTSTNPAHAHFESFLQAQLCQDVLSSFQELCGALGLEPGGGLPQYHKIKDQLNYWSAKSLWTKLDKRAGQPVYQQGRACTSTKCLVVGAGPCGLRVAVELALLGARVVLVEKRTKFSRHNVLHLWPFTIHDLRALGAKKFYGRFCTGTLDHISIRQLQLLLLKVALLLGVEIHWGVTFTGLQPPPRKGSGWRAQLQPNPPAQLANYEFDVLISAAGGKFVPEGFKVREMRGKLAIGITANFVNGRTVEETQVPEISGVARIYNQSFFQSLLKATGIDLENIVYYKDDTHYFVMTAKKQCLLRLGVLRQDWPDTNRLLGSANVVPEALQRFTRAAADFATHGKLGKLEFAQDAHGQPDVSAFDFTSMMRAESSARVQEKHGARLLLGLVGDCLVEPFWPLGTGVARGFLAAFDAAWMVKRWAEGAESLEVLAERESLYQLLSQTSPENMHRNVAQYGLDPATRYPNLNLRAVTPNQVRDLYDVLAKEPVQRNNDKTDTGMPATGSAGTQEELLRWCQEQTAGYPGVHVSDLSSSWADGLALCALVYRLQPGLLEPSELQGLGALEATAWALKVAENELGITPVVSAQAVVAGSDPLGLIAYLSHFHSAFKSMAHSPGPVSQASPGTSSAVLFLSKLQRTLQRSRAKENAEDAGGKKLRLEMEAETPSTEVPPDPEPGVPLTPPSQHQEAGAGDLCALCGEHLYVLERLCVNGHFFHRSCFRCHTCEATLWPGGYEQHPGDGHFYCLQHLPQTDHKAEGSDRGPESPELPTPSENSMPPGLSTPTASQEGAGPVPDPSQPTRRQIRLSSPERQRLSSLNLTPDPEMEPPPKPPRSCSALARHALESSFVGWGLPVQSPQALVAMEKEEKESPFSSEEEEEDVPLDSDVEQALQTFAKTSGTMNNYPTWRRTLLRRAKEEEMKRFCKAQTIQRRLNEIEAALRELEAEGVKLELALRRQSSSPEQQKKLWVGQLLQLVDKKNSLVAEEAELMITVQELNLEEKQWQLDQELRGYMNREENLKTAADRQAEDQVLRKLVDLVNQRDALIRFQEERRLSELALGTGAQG
UniProt Q6WCQ1: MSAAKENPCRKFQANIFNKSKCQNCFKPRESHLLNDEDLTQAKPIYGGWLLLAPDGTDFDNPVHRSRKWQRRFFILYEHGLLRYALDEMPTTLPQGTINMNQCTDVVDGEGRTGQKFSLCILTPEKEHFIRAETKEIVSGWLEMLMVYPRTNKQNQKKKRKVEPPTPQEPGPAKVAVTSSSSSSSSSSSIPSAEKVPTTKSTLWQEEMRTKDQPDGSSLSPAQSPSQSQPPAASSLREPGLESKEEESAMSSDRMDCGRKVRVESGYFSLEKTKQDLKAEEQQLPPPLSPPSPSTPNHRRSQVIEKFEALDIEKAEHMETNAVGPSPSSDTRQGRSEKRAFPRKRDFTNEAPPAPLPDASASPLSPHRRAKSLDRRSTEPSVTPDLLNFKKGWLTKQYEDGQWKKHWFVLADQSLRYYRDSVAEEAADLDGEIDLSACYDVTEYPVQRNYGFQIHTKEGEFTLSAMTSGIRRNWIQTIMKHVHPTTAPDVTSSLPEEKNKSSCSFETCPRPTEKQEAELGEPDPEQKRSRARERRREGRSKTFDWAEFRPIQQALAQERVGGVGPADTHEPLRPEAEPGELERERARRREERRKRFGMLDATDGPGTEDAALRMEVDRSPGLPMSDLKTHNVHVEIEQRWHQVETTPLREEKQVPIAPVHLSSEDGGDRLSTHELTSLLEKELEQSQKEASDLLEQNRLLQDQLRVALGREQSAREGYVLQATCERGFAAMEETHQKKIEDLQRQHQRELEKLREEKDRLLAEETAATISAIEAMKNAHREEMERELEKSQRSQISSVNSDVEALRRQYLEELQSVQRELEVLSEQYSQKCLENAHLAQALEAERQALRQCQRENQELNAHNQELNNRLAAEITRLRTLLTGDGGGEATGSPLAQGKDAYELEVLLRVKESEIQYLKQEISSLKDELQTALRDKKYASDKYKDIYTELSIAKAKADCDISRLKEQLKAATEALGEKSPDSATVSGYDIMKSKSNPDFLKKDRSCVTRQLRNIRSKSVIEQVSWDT
UniProt Q9BV20: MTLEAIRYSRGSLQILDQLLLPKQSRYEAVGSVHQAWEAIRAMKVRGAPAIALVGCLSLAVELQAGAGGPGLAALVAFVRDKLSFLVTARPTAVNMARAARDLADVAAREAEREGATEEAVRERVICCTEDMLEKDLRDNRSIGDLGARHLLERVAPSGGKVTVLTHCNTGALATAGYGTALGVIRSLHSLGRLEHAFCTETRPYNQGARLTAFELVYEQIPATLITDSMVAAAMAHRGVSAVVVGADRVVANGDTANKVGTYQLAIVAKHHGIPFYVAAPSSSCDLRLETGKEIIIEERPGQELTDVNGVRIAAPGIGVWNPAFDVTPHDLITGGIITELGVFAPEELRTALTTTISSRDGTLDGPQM
UniProt Q13064: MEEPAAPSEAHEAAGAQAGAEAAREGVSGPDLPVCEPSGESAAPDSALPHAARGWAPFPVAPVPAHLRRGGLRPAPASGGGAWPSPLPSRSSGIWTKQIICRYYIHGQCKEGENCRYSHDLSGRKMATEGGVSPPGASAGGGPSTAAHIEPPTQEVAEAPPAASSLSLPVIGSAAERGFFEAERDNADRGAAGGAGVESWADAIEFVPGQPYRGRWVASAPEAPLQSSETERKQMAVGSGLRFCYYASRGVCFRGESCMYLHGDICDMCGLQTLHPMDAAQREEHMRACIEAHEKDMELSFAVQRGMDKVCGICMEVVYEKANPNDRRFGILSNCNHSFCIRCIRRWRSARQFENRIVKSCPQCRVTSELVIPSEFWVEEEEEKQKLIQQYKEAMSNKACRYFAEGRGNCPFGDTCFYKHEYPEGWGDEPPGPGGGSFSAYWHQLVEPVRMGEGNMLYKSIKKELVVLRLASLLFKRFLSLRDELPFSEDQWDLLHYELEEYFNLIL
UniProt Q8N108: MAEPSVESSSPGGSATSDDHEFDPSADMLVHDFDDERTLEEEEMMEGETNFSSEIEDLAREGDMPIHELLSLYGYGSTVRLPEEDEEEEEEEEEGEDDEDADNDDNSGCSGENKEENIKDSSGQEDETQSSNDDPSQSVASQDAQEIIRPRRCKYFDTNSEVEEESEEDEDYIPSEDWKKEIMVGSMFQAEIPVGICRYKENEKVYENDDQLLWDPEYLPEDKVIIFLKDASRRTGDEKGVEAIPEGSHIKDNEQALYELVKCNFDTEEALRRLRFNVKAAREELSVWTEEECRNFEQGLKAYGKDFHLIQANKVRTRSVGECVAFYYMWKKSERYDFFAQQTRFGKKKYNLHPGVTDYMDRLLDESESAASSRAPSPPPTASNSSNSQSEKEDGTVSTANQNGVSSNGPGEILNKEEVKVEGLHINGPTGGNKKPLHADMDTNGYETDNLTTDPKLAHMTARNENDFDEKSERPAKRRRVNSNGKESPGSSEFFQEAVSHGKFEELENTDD
UniProt Q09328: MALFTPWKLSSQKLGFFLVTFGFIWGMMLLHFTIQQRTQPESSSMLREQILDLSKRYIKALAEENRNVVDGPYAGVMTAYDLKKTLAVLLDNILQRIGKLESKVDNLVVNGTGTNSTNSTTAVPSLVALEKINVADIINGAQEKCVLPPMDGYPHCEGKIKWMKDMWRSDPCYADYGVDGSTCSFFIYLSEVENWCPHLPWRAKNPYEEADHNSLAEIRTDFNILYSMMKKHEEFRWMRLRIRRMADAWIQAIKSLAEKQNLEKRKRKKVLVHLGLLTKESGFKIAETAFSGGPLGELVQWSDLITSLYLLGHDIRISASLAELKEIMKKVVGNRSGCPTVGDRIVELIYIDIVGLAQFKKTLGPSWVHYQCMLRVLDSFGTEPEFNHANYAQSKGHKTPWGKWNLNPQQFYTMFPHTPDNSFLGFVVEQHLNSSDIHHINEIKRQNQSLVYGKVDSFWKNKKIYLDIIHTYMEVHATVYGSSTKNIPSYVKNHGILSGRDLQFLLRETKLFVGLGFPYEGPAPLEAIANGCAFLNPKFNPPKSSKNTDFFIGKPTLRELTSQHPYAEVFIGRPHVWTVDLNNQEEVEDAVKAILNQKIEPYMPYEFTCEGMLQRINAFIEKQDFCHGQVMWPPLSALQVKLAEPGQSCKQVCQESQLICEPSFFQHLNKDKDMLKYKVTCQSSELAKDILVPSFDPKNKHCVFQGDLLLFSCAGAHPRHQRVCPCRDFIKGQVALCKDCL
UniProt Q9Y3A3: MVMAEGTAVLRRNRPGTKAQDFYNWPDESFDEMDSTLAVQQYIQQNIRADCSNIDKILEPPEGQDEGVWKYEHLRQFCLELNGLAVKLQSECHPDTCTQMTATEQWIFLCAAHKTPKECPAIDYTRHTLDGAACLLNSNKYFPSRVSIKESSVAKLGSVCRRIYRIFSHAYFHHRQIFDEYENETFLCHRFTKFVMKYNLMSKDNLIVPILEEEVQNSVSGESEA

Experiments:
Assay in all cases: log2 fold change, soluble protein after heating vs DMSO (PISA); higher = thermal stabilisation; K562 lysate, 10 uM; active = over 0.2 and 3.5 SD of the protein, either way, in both replicates (recomputed)
[1] = compound: Cc1cn(-c2cc(NC(=O)c3ccc(C)c(Nc4nccc(-c5cccnc5)n4)c3)cc(C(F)(F)F)c2)cn1 [nilotinib]
Procedure, shortened: (§1)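 Thermal stability, expressed as log-two fold change relative to solvent controls, is given from duplicates. Crude K562 extract in PBS pH 7.4 with 1 mM MgCl2, at 1 mg/mL protein, was treated with 10 μM compound for 30 min and heated in aliquots for 3 min across 48°C-58°C. After pooling, adjustment to 0.5% NP-40 at 4°C and centrifugation at 21,000xg for 90 min, supernatant protein was measured by TMTpro 16plex LC-MS/MS with channel sums equalised.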

[2] = compound: Cc1nc(Nc2n[nH]c3c2CN(C(=O)N[C@H](CN(C)C)c2ccccc2)C3(C)C)c2sccc2n1
Procedure, shortened: as §1

[3] = compound: Cc1nc(Nc2ncc(C(=O)Nc3c(C)cccc3Cl)s2)cc(N2CCN(CCO)CC2)n1 [dasatinib]
Procedure, shortened: as §1

[4] = compound: Cc1ncc(-c2ccnc(Nc3ccc(S(C)(=O)=O)cc3)n2)n1C(C)C
Procedure, shortened: as §1

[5] = compound: Cn1cc(-c2ccc3c(c2)CCN3C(=O)Cc2cccc(C(F)(F)F)c2)c2c(N)ncnc21
Procedure, shortened: as §1

[6] = compound: Cn1cc(CNCC2CCN(c3ncc(C(=O)NO)cn3)CC2)c2ccccc21 [quisinostat]
Procedure, shortened: as §1

[7] = compound: Cn1cncc1[C@@](N)(c1ccc(Cl)cc1)c1ccc2c(c1)c(-c1cccc(Cl)c1)cc(=O)n2C [tipifarnib]
Procedure, shortened: as §1

[8] = compound: NC(=O)Nc1cc(-c2cccc(F)c2)sc1C(=O)N[C@H]1CCCNC1
Procedure, shortened: as §1

[9] = compound: NC(=O)c1cnc(N[C@@H]2CCCC[C@@H]2N)nc1Nc1cccc(-n2nccn2)c1
Procedure, shortened: as §1

[10] = compound: NC1(c2ccc(-c3nc4ccn5c(=O)[nH]nc5c4cc3-c3ccccc3)cc2)CCC1
Procedure, shortened: as §1

Measured: log2 fold change

MINPP1 (UniProt Q9UNW1)
inactive: [1] 0.027 | [2] -0.016 | [3] 0.079 | [4] 0.002 | [5] 0.026 | [6] 0.039 | [7] 0.009 | [8] -0.021 | [9] -0.005 | [10] 0.002

MOGS (UniProt Q13724)
inactive: [1] -0.03 | [2] -0.002 | [3] 0.022 | [4] 0.005 | [5] 0.025 | [6] 0.084 | [7] -0.023 | [8] 0.004 | [9] 0 | [10] -0.002

MRPL13 (UniProt Q9BYD1)
inactive: [1] 0.053 | [2] -0.027 | [3] -0.005 | [4] -0.016 | [5] 0.038 | [6] -0.025 | [7] -0.008 | [8] -0.012 | [9] 0.027 | [10] 0.051

MPLKIP (UniProt Q8TAP9)
inactive: [1] 0.034 | [2] -0.075 | [3] -0.068 | [4] -0.101 | [5] 0.003 | [6] -0.117 | [7] -0.046 | [8] 0.005 | [9] 0.004 | [10] -0.062

MRPL10 isoform 2 (UniProt Q7Z7H8)
inactive: [1] 0.009 | [2] 0.016 | [3] -0.019 | [4] 0.025 | [5] 0.054 | [6] -0.22 | [7] -0.017 | [8] 0.015 | [9] 0.024 | [10] -0.011

MICALL1 (UniProt Q8N3F8)
inactive: [1] 0.004 | [2] 0.004 | [3] 0.002 | [4] -0.002 | [5] 0.005 | [6] -0.013 | [7] 0.067 | [8] -0.007 | [9] 0.002 | [10] -0.007

MMGT1 (UniProt Q8N4V1)
inactive: [1] -0.028 | [2] 0.034 | [3] 0.004 | [4] 0.001 | [5] 0.009 | [6] -0.022 | [7] 0.006 | [8] 0 | [9] 0.01 | [10] -0.023

MRPL1 (UniProt Q9BYD6)
inactive: [1] -0.044 | [2] -0.012 | [3] -0.05 | [4] 0.011 | [5] 0.025 | [6] 0.012 | [7] 0.014 | [8] 0.035 | [9] -0.001 | [10] -0.015

MOCOS (UniProt Q96EN8)
inactive: [1] 0.044 | [2] -0.066 | [3] -0.002 | [4] -0.006 | [5] 0.053 | [6] -0.076 | [7] 0.013 | [8] 0.011 | [9] 0.034 | [10] 0.031

MMS22L (UniProt Q6ZRQ5)
inactive: [1] 0.033 | [2] 0 | [3] 0.026 | [4] -0.015 | [5] -0.007 | [6] -0.086 | [7] -0.013 | [8] 0.041 | [9] -0.03 | [10] -0.06

MLX (UniProt Q9UH92)
inactive: [1] 0.023 | [2] 0.065 | [3] -0.059 | [4] -0.066 | [5] 0.06 | [6] -0.119 | [7] -0.08 | [8] -0.03 | [9] 0.012 | [10] 0.094

MICAL1 isoform 4 (UniProt Q8TDZ2)
inactive: [1] 0.042 | [2] 0.057 | [3] -0.041 | [4] -0.051 | [5] 0.046 | [6] -0.035 | [7] -0.141 | [8] 0.06 | [9] 0.014 | [10] -0.016

MGAT2 (UniProt Q10469)
inactive: [1] 0.006 | [2] -0.07 | [3] 0.03 | [4] 0.078 | [5] -0.065 | [6] -0.009 | [7] 0.13 | [8] 0.033 | [9] -0.006 | [10] 0.016

MPRIP isoform 2 (UniProt Q6WCQ1)
inactive: [1] 0.032 | [2] -0.023 | [3] 0.02 | [4] 0.024 | [5] -0.044 | [6] -0.062 | [7] 0.012 | [8] 0.001 | [9] -0.021 | [10] 0.059

MRI1 (UniProt Q9BV20)
inactive: [1] 0.011 | [2] -0.017 | [3] 0.001 | [4] 0.022 | [5] 0.009 | [6] -0.013 | [7] -0.002 | [8] 0.012 | [9] 0.021 | [10] 0.009

MPV17L2 (UniProt Q567V2)
inactive: [1] 0.022 | [2] -0.002 | [3] 0.002 | [4] 0.036 | [5] 0.013 | [6] -0.066 | [7] 0.016 | [8] 0 | [9] -0.019 | [10] 0.005

MOB3B (UniProt Q86TA1)
inactive: [1] 0.076 | [2] -0.009 | [3] -0.021 | [4] 0.066 | [5] -0.041 | [6] -0.083 | [7] 0.078 | [8] 0.035 | [9] 0.05 | [10] -0.01

MPP1 (UniProt Q00013)
inactive: [1] -0.017 | [2] -0.014 | [3] -0.011 | [4] 0.011 | [5] 0.007 | [6] 0.017 | [7] 0 | [8] 0.024 | [9] 0.017 | [10] 0

MKRN3 (UniProt Q13064)
inactive: [1] -0.064 | [2] 0.073 | [3] -0.022 | [4] -0.192 | [5] -0.093 | [6] -0.068 | [7] 0.202 | [8] 0.052 | [9] -0.06 | [10] 0.175

MIER1 isoform 12 (UniProt Q8N108)
inactive: [1] -0.044 | [2] 0.02 | [3] 0.044 | [4] 0.003 | [5] -0.01 | [6] -0.102 | [7] -0.02 | [8] 0 | [9] 0.019 | [10] -0.003

MGAT5 (UniProt Q09328)
inactive: [1] 0.035 | [2] 0.01 | [3] -0.005 | [4] 0.012 | [5] 0.002 | [6] 0.051 | [7] -0.02 | [8] -0.019 | [9] 0.022 | [10] -0.003

Two successive entries already listed, quoted:
MKRN3 (UniProt Q13064)
inactive: [1] -0.064 | [2] 0.073 | [3] -0.022 | [4] -0.192 | [5] -0.093 | [6] -0.068 | [7] 0.202 | [8] 0.052 | [9] -0.06 | [10] 0.175

MIER1 isoform 12 (UniProt Q8N108)
inactive: [1] -0.044 | [2] 0.02 | [3] 0.044 | [4] 0.003 | [5] -0.01 | [6] -0.102 | [7] -0.02 | [8] 0 | [9] 0.019 | [10] -0.003

Remaining list, next part:

MOB4 (UniProt Q9Y3A3)
inactive: [1] -0.01 | [2] 0.008 | [3] 0.035 | [4] 0.079 | [5] -0.024 | [6] -0.04 | [7] 0.015 | [8] 0.017 | [9] -0.061 | [10] 0.006

MRPL23 (UniProt Q16540)
inactive: [1] 0.103 | [2] -0.097 | [3] -0.044 | [4] -0.052 | [5] 0.01 | [6] 0.029 | [7] -0.11 | [8] -0.019 | [9] -0.038 | [10] -0.025

MOB1B isoform 2 (UniProt Q7L9L4)
inactive: [1] 0.025 | [2] -0.006 | [3] 0.003 | [4] 0.036 | [5] 0.002 | [6] -0.05 | [7] -0.029 | [8] 0.024 | [9] -0.007 | [10] -0.042

MNAT1 (UniProt P51948)
inactive: [1] -0.033 | [2] 0.019 | [3] -0.035 | [4] -0.02 | [5] -0.008 | [6] -0.01 | [7] 0.012 | [8] 0.005 | [9] 0.005 | [10] -0.014

MOB2 isoform 3 (UniProt Q70IA6)
inactive: [1] 0.002 | [2] 0.031 | [3] -0.049 | [4] 0.009 | [5] 0.047 | [6] -0.068 | [7] 0.068 | [8] 0.034 | [9] 0.046 | [10] -0.025

MRPL12 (UniProt P52815)
inactive: [1] 0.032 | [2] -0.01 | [3] 0.034 | [4] 0.099 | [5] -0.013 | [6] 0.084 | [7] 0.031 | [8] -0.023 | [9] -0.022 | [10] -0.006

MRM3 (UniProt Q9HC36)
inactive: [1] -0.058 | [2] -0.021 | [3] 0.003 | [4] -0.04 | [5] 0.011 | [6] 0.016 | [7] 0.054 | [8] -0.034 | [9] 0.029 | [10] -0.025
